Measurements: patent US11020405B2, “Method for prevention or treatment of diabetic complications” (KANGWON NATIONAL UNIVERSITY UNIVERSITY-INDUSTRY COOPERATION …, priority 2017, dated 2021)

Test: Body weight and blood glucose monitoring in diabetic mice
Assay type: in vivo, C57BL/6 mice
Procedure: FIGS. 19A and 19B show the preventive effects of midazolam against hyperglycemia-induced endothelial apoptosis in the aortic endothelium of diabetic mice. Six-week-old male C57BL/6 mice were administered with streptozotocin (150 mg/kg body weight) to give diabetic mouse models. One week after streptozotocin injection, diabetic mice were administered midazolam (10 mg/kg) by intraperitoneal injection daily for 14 days. The body weight of mice were measure in normal (20.7±0.1 g), diabetic (17.1±0.1 g), and midazolam supplemented diabetic mice (17.0±0.3 g). Blood glucose levels were also monitored in normal (124.0±12.0 mg/dL), diabetic (509.0±1.0 mg/dL), and midazolam supplemented diabetic mice (515.7±3.4 mg/dL). Aorta of mice were dissected and cut longitudinally to expose the endothelium. And then aortic segments were fixed for 15 min with 1% (w/v) paraformaldehyde in PBS, followed by treatment for 30 min with 70% (v/v) ethanol on ice. Apoptotic cells were stained by terminal deoxynucleotidyl transferase dUTP nick end labeling (TUNEL) with nuclear counterstaining with DAPI and visualized by confocal microscopy in the aortic endothelium. Representative images of endothelial apoptosis in aorta are shown in additional FIG. 19A. Scale bar, 100 μm. The results of endothelial apoptosis quantitatively analyzed by measurement of TUNEL staining in the aorta are shown in additional FIG. 19B (n=4 for normal and diabetic, n=6 for diabetic+Midazolam).
FIGS. 20A and 20B show the preventive effects of midazolam against hyperglycemia-induced renal vascular leakage in diabetic mice. Six-week-old male C57BL/6 mice were administered with streptozotocin (150 mg/kg body weight) to give diabetic mouse models. Two weeks after streptozotocin injection, diabetic mice were administered 10 mg/kg midazolam by intraperitoneal injection daily for 2 days, and vascular leakage was investigated. The body weight of mice were measure in normal (19.9±0.3 g), diabetic (17.7±0.3 g), and midazolam supplemented diabetic mice (17.7±0.3 g). Blood glucose levels were also monitored in normal (123.5±6.5 mg/dL), diabetic (505.0±89.0 mg/dL), and midazolam supplemented diabetic mice (500.3±63.3 mg/dL). The mice were anesthetized with 3% isoflurane, and 1.25 mg of FITC-dextran was injected into the right ventricle of each mouse and allowed to circulate for 5 min. […] The results of vascular leakage quantitatively analyzed by measuring the fluorescence intensity of FITC-dextran in the kidneys are shown in additional FIG. 20B. […]
FIGS. 21A and 21B show the preventive effects of midazolam against hyperglycemia-induced pulmonary vascular leakage in diabetic mice. […] Blood glucose levels were also monitored in normal (123.5±6.5 mg/dL), diabetic (505.0±89.0 mg/dL), and midazolam supplemented diabetic mice (500.3±63.3 mg/dL). […]

Cc1ncc2n1-c1ccc(Cl)cc1C(c1ccccc1F)=NC2 [midazolam]
blood glucose level (Test Example 15: midazolam supplemented diabetic mice, 10 mg/kg intraperitoneal daily for 14 days): 515.7 ± 3.4 mg/dL | blood glucose level (Test Example 16: midazolam supplemented diabetic mice, 10 mg/kg intraperitoneal daily for 2 days): 500.3 ± 63.3 mg/dL | blood glucose level (Test Example 17: midazolam supplemented diabetic mice, 10 mg/kg intraperitoneal daily for 2 days): 500.3 ± 63.3 mg/dL | blood glucose level (Test Example 18: midazolam supplemented diabetic mice, 10 mg/kg intraperitoneal daily for 14 days, B16F10 cells): 515.7 ± 3.4 mg/dL
